Source: the supplement of paper PMC8728848
The list shows a part of the results.

Columns and labels:
Experiment in all cases: glycan array binding signal (z-score within array); higher = stronger binding
Settings in all cases: glycan notation: IUPAC condensed, linker removed
[1] = biological target: Fuc(a1-2)[GalNAc(a1-3)]Gal(b1-3)GlcNAc(b1-3)GalNAc
Outline: (§1)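 Glycan array data were curated from 3228 arrays in the Consortium for Functional Glycomics database and kept only where the protein sequence was available. Glycan names were converted to IUPAC-condensed notation, and columns mapping to the same glycan were averaged. The binding signal is a within-array Z-score, averaged across arrays of the same protein sequence at different concentrations or buffers and across linkers. Negative Z-scores can be read as non-binding.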

[2] = biological target: Fuc(a1-2)[GalNAc(a1-3)]Gal(b1-3)GlcNAc(b1-6)GalNAc
Outline: as §1

[3] = biological target: Fuc(a1-2)[GalNAc(a1-3)]Gal(b1-4)Glc
Outline: as §1

[4] = biological target: Fuc(a1-2)[GalNAc(a1-3)]Gal(b1-4)GlcNAc
Outline: as §1

[5] = biological target: Fuc(a1-2)[GalNAc(a1-3)]Gal(b1-4)GlcNAc(b1-2)Man
Outline: as §1

[6] = biological target: Fuc(a1-2)[GalNAc(a1-3)]Gal(b1-4)GlcNAc(b1-2)Man(a1-3)[Fuc(a1-2)[GalNAc(a1-3)]Gal(b1-4)GlcNAc(b1-2)Man(a1-6)]Man(b1-4)GlcNAc(b1-4)GlcNAc
Outline: as §1

[7] = biological target: Fuc(a1-2)[GalNAc(a1-3)]Gal(b1-4)GlcNAc(b1-2)Man(a1-3)[Fuc(a1-2)[GalNAc(a1-3)]Gal(b1-4)GlcNAc(b1-2)Man(a1-6)]Man(b1-4)GlcNAc(b1-4)[Fuc(a1-6)]GlcNAc
Outline: as §1

[8] = biological target: Fuc(a1-2)[GalNAc(a1-3)]Gal(b1-4)GlcNAc(b1-3)Gal(b1-4)GlcNAc
Outline: as §1

[9] = biological target: Fuc(a1-2)[GalNAc(a1-3)]Gal(b1-4)GlcNAc(b1-3)Gal(b1-4)GlcNAc(b1-3)Gal(b1-4)GlcNAc
Outline: as §1

[10] = biological target: Fuc(a1-2)[GalNAc(a1-3)]Gal(b1-4)GlcNAc(b1-3)GalNAc
Outline: as §1

[11] = biological target: Fuc(a1-2)[GalNAc(a1-3)]Gal(b1-4)GlcNAc(b1-3)[Fuc(a1-2)[GalNAc(a1-3)]Gal(b1-4)GlcNAc(b1-6)]GalNAc
Outline: as §1

[12] = biological target: Fuc(a1-2)[GalNAc(a1-3)]Gal(b1-4)GlcNAc(b1-6)GalNAc
Outline: as §1

[13] = biological target: Fuc(a1-2)[GalNAc(a1-3)]Gal(b1-4)[Fuc(a1-3)]GlcNAc
Outline: as §1

[14] = biological target: Fuc(a1-2)[GalNAc(a1-3)]Gal(b1-4)[Fuc(a1-3)]GlcNAc(b1-3)GalNAc
Outline: as §1

[15] = biological target: Fuc(a1-2)[GalNAc(a1-4)]Gal(b1-4)GlcNAc
Outline: as §1

[16] = biological target: Fuc(a1-2)[GalNAc(b1-3)]Gal
Outline: as §1

Fuc(a1-3)GlcNAc = biological target: Fuc(a1-3)GlcNAc
Outline: as §1

[17] = biological target: Fuc(a1-3)[Gal(b1-4)]Glc6S
Outline: as §1

[18] = biological target: Fuc(a1-3)[Gal(b1-4)]GlcNAc
Outline: as §1

[19] = biological target: Fuc(a1-3)[Gal(b1-4)]GlcNAc(b1-2)Man
Outline: as §1

[20] = biological target: Fuc(a1-3)[Gal(b1-4)]GlcNAc(b1-2)Man(a1-3)[Fuc(a1-3)[Gal(b1-4)]GlcNAc(b1-2)Man(a1-6)]Man(b1-4)GlcNAc(b1-4)GlcNAc
Outline: as §1

[21] = biological target: Fuc(a1-3)[Gal(b1-4)]GlcNAc(b1-2)Man(a1-3)[Fuc(a1-3)[Gal(b1-4)]GlcNAc(b1-2)Man(a1-6)]Man(b1-4)GlcNAc(b1-4)[Fuc(a1-6)]GlcNAc
Outline: as §1

[22] = biological target: Fuc(a1-3)[Gal(b1-4)]GlcNAc(b1-3)Gal(b1-3)[Fuc(a1-4)]GlcNAc
Outline: as §1

[23] = biological target: Fuc(a1-3)[Gal(b1-4)]GlcNAc(b1-3)Gal(b1-4)[Fuc(a1-3)]GlcNAc
Outline: as §1

[24] = biological target: Fuc(a1-3)[Gal(b1-4)]GlcNAc(b1-3)Gal(b1-4)[Fuc(a1-3)]GlcNAc(b1-3)Gal(b1-4)[Fuc(a1-3)]GlcNAc
Outline: as §1

[25] = biological target: Fuc(a1-3)[Gal(b1-4)]GlcNAc(b1-3)GalNAc
Outline: as §1

[26] = biological target: Fuc(a1-3)[Gal(b1-4)]GlcNAc(b1-6)GalNAc
Outline: as §1

[27] = biological target: Fuc(a1-3)[Gal(b1-4)]GlcNAc(b1-6)[Gal(b1-3)GlcNAc(b1-3)]Gal(b1-4)Glc
Outline: as §1

[28] = biological target: Fuc(a1-3)[Gal(b1-4)]GlcNAc6S
Outline: as §1

[29] = biological target: Fuc(a1-3)[Gal3S(b1-4)]Glc
Outline: as §1

[30] = biological target: Fuc(a1-3)[Gal3S(b1-4)]GlcNAc
Outline: as §1

[31] = biological target: Fuc(a1-3)[Gal3S(b1-4)]GlcNAc6S
Outline: as §1

[32] = biological target: Fuc(a1-3)[GalNAc(b1-4)]GlcNAc
Outline: as §1

[33] = biological target: Fuc(a1-3)[GalNAc(b1-4)]GlcNAc6S
Outline: as §1

Fuc(a1-4)GlcNAc = biological target: Fuc(a1-4)GlcNAc
Outline: as §1

Fuc(b1-3)GlcNAc = biological target: Fuc(b1-3)GlcNAc
Outline: as §1

Gal(a1-2)Gal = biological target: Gal(a1-2)Gal
Outline: as §1

Gal(a1-3)Gal = biological target: Gal(a1-3)Gal
Outline: as §1

Gal(a1-3)Gal(b1-3)GlcNAc = biological target: Gal(a1-3)Gal(b1-3)GlcNAc
Outline: as §1

[34] = biological target: Gal(a1-3)Gal(b1-3)GlcNAc(b1-2)Man
Outline: as §1

[35] = biological target: Gal(a1-3)Gal(b1-3)GlcNAc(b1-2)Man(a1-3)[Gal(a1-3)Gal(b1-3)GlcNAc(b1-2)Man(a1-6)]Man(b1-4)GlcNAc(b1-4)GlcNAc
Outline: as §1

[36] = biological target: Gal(a1-3)Gal(b1-3)GlcNAc(b1-3)GalNAc
Outline: as §1

[37] = biological target: Gal(a1-3)Gal(b1-3)GlcNAc(b1-6)GalNAc
Outline: as §1

[38] = biological target: Gal(a1-3)Gal(b1-3)[Fuc(a1-4)]GlcNAc(b1-2)Man(a1-3)[Gal(a1-3)Gal(b1-3)[Fuc(a1-4)]GlcNAc(b1-2)Man(a1-6)]Man(b1-4)GlcNAc(b1-4)GlcNAc
Outline: as §1

Gal(a1-3)Gal(b1-4)Glc = biological target: Gal(a1-3)Gal(b1-4)Glc
Outline: as §1

B1: pTFF2 (Sus scrofa), P01359 (protein)
chain: KPAACRCSRQDPKNRVNCGFPGITSDQCFTSGCCFDSQVPGVPWCFKPLPAQESEECVMEVSARKNCGYPGISPEDCAARNCCFSDTIPEVPWCFFPMSVEACHY
- glycan array binding signal (z-score) [1]: 0.556
- glycan array binding signal (z-score) [2]: -1.19
- glycan array binding signal (z-score) [3]: 0.343
- glycan array binding signal (z-score) [4]: -0.76
- glycan array binding signal (z-score) [5]: 0.535
- glycan array binding signal (z-score) [6]: -0.199
- glycan array binding signal (z-score) [7]: 0.517
- glycan array binding signal (z-score) [8]: 0.229
- glycan array binding signal (z-score) [9]: -0.048
- glycan array binding signal (z-score) [10]: 1.82
- glycan array binding signal (z-score) [11]: -0.453
- glycan array binding signal (z-score) [12]: -0.647
- glycan array binding signal (z-score) [13]: -0.904
- glycan array binding signal (z-score) [14]: -0.55
- glycan array binding signal (z-score) [15]: 0.188
- glycan array binding signal (z-score) [16]: 0.984
- glycan array binding signal (z-score) (Fuc(a1-3)GlcNAc): -0.529
- glycan array binding signal (z-score) [17]: 0.468
- glycan array binding signal (z-score) [18]: 0.266
- glycan array binding signal (z-score) [19]: -0.483
- glycan array binding signal (z-score) [20]: 1.37
- glycan array binding signal (z-score) [21]: -0.109
- glycan array binding signal (z-score) [22]: -0.004
- glycan array binding signal (z-score) [23]: 0.225
- glycan array binding signal (z-score) [24]: 0.381
- glycan array binding signal (z-score) [25]: -0.276
- glycan array binding signal (z-score) [26]: -0.248
- glycan array binding signal (z-score) [27]: -0.161
- glycan array binding signal (z-score) [28]: 0.435
- glycan array binding signal (z-score) [29]: -0.916
- glycan array binding signal (z-score) [30]: 0.671
- glycan array binding signal (z-score) [31]: -0.432
- glycan array binding signal (z-score) [32]: 1.16
- glycan array binding signal (z-score) [33]: -0.98
- glycan array binding signal (z-score) (Fuc(a1-4)GlcNAc): -0.026
- glycan array binding signal (z-score) (Fuc(b1-3)GlcNAc): 0.781
- glycan array binding signal (z-score) (Gal(a1-2)Gal): -0.358
- glycan array binding signal (z-score) (Gal(a1-3)Gal): -0.276
- glycan array binding signal (z-score) (Gal(a1-3)Gal(b1-3)GlcNAc): -0.431
- glycan array binding signal (z-score) [34]: -1.06
- glycan array binding signal (z-score) [35]: -0.447
- glycan array binding signal (z-score) [36]: 1.68
- glycan array binding signal (z-score) [37]: 0.622
- glycan array binding signal (z-score) [38]: -0.386
- glycan array binding signal (z-score) (Gal(a1-3)Gal(b1-4)Glc): -0.4
